Source: patent publication EP0136586A2, “Novel corticoid derivatives and process for production thereof” (priority 1983, dated 1985)

System: edema
Test: Topical anti-inflammatory activity (croton oil ear edema)
Assay type: in vivo, Male mice of ddY-strain
Conditions: anti-inflammatory activity ratio (A) divided by thymolytic activity ratio (B)
Description: 0.9 % sodium chloride, 0.4 % Tween 80, 0.5 % carboxymethyl cellulose and 0.9 % benzyl alcohol are dissolved or suspended in distilled water, which is used as a suspending medium. The compounds to be tested are dissolved in a mixture of the suspending medium : pyridine : diethyl ether = 1 : 4 : 5 and mixed with equal volume of diethyl ether containing 10 % croton oil and the mixture is used as the test liquid. Commercially available felt having a thickness of 5 mm is cut in 7mm x 7 mm square and adhered to ring tweezers using alkyl-a-cyanoacrylate. The felt is soaked in the test liquid and the liquid is applied to the right ear of the mouse by rubbing it with the felt at a fixed pressure without anesthesia. The left ear is left untreated. At 5th hours after application, mice are killed and both of the ears are cut and weighed. The rate (%) of increase in the weight of right ear against that of left ear is calculated as the edema ratio. Edema ratios obtained on the test compounds are compared with those obtained on control and edema-repressing rate is obtained.

Substance	R=A/B
21-chloro-9α-fluoro-16β-mathyl-1,4-pregnadiene-11β,17α-diol-3,6,20-trione 17α-methyl carbonate [Example 2]	167
21-chloro-9α-fluoro-16β-methyl-1,4-pregnadiene-11β,17α-diol-3,6,20-trione 17a-ethyl carbonate [Example 4]	27
